# According to PubChem BioAssay AID1347076 (National Center for Advancing Translational Sciences (NCATS), 2019):
# In all, about 400,000 compounds went through this assay and about 13,000 (3.2%) were called active. Inconclusive results, whose numbers are uncertain, are shown with a selection of clear calls. Calls follow the shape of the dose curve; as a rule, active = well fitted cell-killing curve with a large enough effect; inconclusive = small, poorly fitted or top-dose-only effect, or effect the other way; inactive = flat fitted curve, though single readings scatter. Potencies beside an inconclusive call are fits to weak or partial responses and may not hold up.
# Assay: qHTS assay for MDR1-selective chemotherapeutics: Primary screen using the drug-selected MDR subline cells KB-V1; also: nearly all actives have a fitted effect of over 60% in size
# Conditions: KB-V1 MDR cells viability, CellTiter-Glo, 72 h; activity change, negative = cytotoxicity: at 46.1 µM (top of the series)
# Summary of the method: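 Luminescent ATP read-out (CellTiter-Glo, 10 min) measures survival of drug-selected KB-V1 MDR cells after 72 h, 37 degrees C compound exposure. Medium: phenol-red-free DMEM, 10% FBS. Values from fitted concentration-response curves.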
# % is scaled to controls: 0 for no effect and ±100 for the full control effect; potency is read from the fitted curve at half-maximal effect.
SMILES,Potency,"activity change, negative = cytotoxicity"
O=C(N/C=C/c1ccccc1)c1cccc([S+](=O)([O-])Nc2ccccc2F)c1,"inconclusive: 0.731 µM [rising, full curve, poor fit]",
CC(C)CC(=O)Nc1ccc2c(c1)OCO2,,inactive: 0.211%
COCCNc1nc(N)c([N+](=O)[O-])c(Nc2ccc(F)cc2)n1,,inactive: 0%
COC(=O)c1ccccc1NC(=O)CNc1ccc(F)c(S(=O)(=O)N2CCOCC2)c1,"inconclusive: 5.17 µM [cytotoxic, full curve, poor fit]",
CCOC(=O)CNc1nc(Cl)nc(Nc2ccc(Cl)cc2)n1,"inconclusive: 16.4 µM [rising, single point]",
O=C(Nc1cccc2c1CCCC2)c1ccncc1,"inconclusive: 29.1 µM [cytotoxic, single point]",
COc1ccc(OC)c(NC(=O)N2CCCC(CNS(=O)(=O)c3cccs3)C2)c1 (centres undefined),"inconclusive: 23.1 µM [cytotoxic, partial curve, poor fit]",
O=C(CN1CCC(n2nnc3cc(F)ccc32)CC1)NC1CCCCC1,active: 20.6 µM,
O=c1c2c3nc4ccccc4nc3n(/N=C/c3ccccn3)c2ncn1-c1ccccc1,"inconclusive: 23.1 µM [cytotoxic, partial curve, poor fit]",
C[C@H](c1ccccc1)N1C[C@@H](COCc2ccccc2)Oc2cc(N3CC[C@@H](N(C)C)C3)ccc2S1(=O)=O,,inactive: -15%
Cn1c(CSc2ccccc2)c(C#N)c2ccccc21,active: 16.4 µM,
CCCNC(=O)c1ccc(Cn2cc(-c3ccc(OC)cc3)nc2C(C)N)cc1 (centres undefined),,inactive: -5.06%
COc1ccc(Br)cc1/C=C/C(=O)Nc1ccc2ccccc2c1,,inactive: -0.816%
CCOC(=O)C1Nc2ccc(OC(F)(F)F)cc2C2C=CCC12 (centres undefined),,inactive: -3.12%
O=C(c1cccc(F)c1)N1CCN(c2cccc(Cl)c2)CC1,active: 11.6 µM,
CC1CCN(S(=O)(=O)c2cccc3cccnc23)CC1,,inactive: -20.5%
O=[N+]([O-])c1cc(S(=O)(=O)Nc2ccccc2)ccc1NCc1ccccc1,"inconclusive: 18.4 µM [cytotoxic, single point]",
CCN(CC)S(=O)(=O)c1ccc(Cl)c(C(=O)NCc2ccccc2Cl)c1,"inconclusive: 20.6 µM [cytotoxic, single point]",
O=C(NN1S(=O)(=O)c2ccccc2S1(=O)=O)c1ccc(Br)cc1,"inconclusive: 20.6 µM [rising, single point]",
CC(C)(C)c1ccc(OCC(O)CN2CCOCC2)cc1 (centres undefined),,inactive: 11.8%
CC(=O)N1CCCc2cc(S(=O)(=O)NCc3ccccc3Cl)ccc21,,inactive: -9.02%
COc1ccccc1NC(=O)CCC(=O)c1ccc(-c2ccccc2)cc1,,inactive: -1.87%
COc1cccc(NC(=O)C(Sc2nnc3ccccn23)c2ccccc2)c1 (centres undefined),active: 20.6 µM,
Cc1ccc(-n2c(=O)c3c(C)c(C)sc3n(Cc3cc(=O)n4ccccc4n3)c2=O)cc1C,"inconclusive: 8.2 µM [cytotoxic, partial curve, poor fit]",
COc1cccc(CN2CCNC(=O)C2CC(=O)NC2CCCCC2)c1OC (centres undefined),,inactive: -19.7%

# Part of the list above, tab-delimited:
SMILES	Potency	activity change, negative = cytotoxicity
CCOC(=O)CNc1nc(Cl)nc(Nc2ccc(Cl)cc2)n1	inconclusive: 16.4 µM [rising, single point]	
O=C(Nc1cccc2c1CCCC2)c1ccncc1	inconclusive: 29.1 µM [cytotoxic, single point]	
COc1ccc(OC)c(NC(=O)N2CCCC(CNS(=O)(=O)c3cccs3)C2)c1 (centres undefined)	inconclusive: 23.1 µM [cytotoxic, partial curve, poor fit]	

# (listing goes on)

SMILES,Potency,"activity change, negative = cytotoxicity"
CCN(Cc1ccccc1)C(=O)C1CCC(CNS(=O)(=O)c2ccc3c(c2)CCCC(=O)N3)CC1 (centres undefined),,inactive: -15.5%
COc1ccc(COC(=O)c2ccc(S(=O)(=O)N3CCC(C)CC3)cc2)cc1,,inactive: -14.4%
O=C(COC(=O)c1ccc(Br)cc1)NC1CCCC1,"inconclusive: 18.4 µM [rising, single point]",
C/C(=N\NC(=O)CCn1nnc2ccccc21)c1ccco1,"inconclusive: 29.1 µM [rising, single point]",
O=C(CNc1ccc2ccccc2c1)N/N=C/C=C/c1cccc([N+](=O)[O-])c1,,inactive: 11.2%
O=C(NCC1CCCO1)c1ccc(NC(=O)c2cccc(Cl)c2)cc1 (centres undefined),"inconclusive: 13 µM [cytotoxic, partial curve, poor fit]",
CCCc1cc(=O)oc2c(CN3CCN(C)CC3)c(O)ccc12,,inactive: -10%
CCOc1cccc(-c2nnc3sc(-c4cccs4)nn23)c1,active: 5.17 µM,
Cc1c(C(=O)N2CCc3ccccc3C2)sc2nc(-c3ccccc3)cn12,,inactive: 9.37%
COc1ccc(C(=O)NCC(c2ccco2)N2CCc3ccccc3C2)c(OC)c1 (centres undefined),"inconclusive: 7.31 µM [cytotoxic, partial curve, poor fit]",
CCOc1cc(OCC)cc(C(=O)N2CCC[C@@H]2C(=O)N2CCC[C@H]2C(=O)NCc2ccncc2)c1,,inactive: 19.6%
Oc1c(C(c2ccccc2Cl)N2CCC(O)CC2)sc2nc(-c3ccco3)nn12 (centres undefined),,inactive: 0%
CCOc1ccc(C(=O)NCC(=O)OCC(=O)Nc2ccccc2OCC)cc1,"inconclusive: 7.31 µM [rising, partial curve]",
O=C(OCC(=O)N1CCCc2ccccc21)c1cnc(Cl)c(Cl)c1,"inconclusive: 6.51 µM [rising, full curve, poor fit]",
COc1cccc(CC(NC(C)=O)C(=O)NC2CCN(S(=O)(=O)c3ccc(F)cc3)CC2)c1OC (centres undefined),"inconclusive: 20.6 µM [rising, single point]",
CCOP1(=O)OCC2OC(n3cnc4c(N)ncnc43)C(O)C2O1 (centres undefined),,inactive: 2.42%
O=C(Nc1ccc(-c2csc(-c3ccccc3)n2)cc1)c1ccccc1,"inconclusive: 2.06 µM [cytotoxic, full curve]",
COCCN1CCC(CNCc2cn[nH]c2-c2ccc(C)c(C)c2)C1 (centres undefined),"inconclusive: 9.2 µM [rising, single point]",
Cc1ccc(NC(=O)C2CCN(S(=O)(=O)c3ccc(C(C)(C)C)cc3)CC2)cc1S(=O)(=O)N1CCOCC1,,inactive: -1.97%
COc1ccc(C(C[N+](=O)[O-])c2c(-c3ccccc3)cc3ccccn23)c(OC)c1 (centres undefined),"inconclusive: 29.1 µM [cytotoxic, single point]",
Cc1ccc(N2C(=O)CCC2=O)c(C)c1,,inactive: 8.71%
Nc1nnc(SCC(=O)NNC(=O)c2ccc([N+](=O)[O-])cc2)s1,"inconclusive: 11.6 µM [rising, partial curve, poor fit]",
Cc1ccccc1NS(=O)(=O)c1ccc(C(=O)N2CCCC2)cc1,active: 20.6 µM,
CCOc1ncccc1C(=O)Nc1ccc(S(=O)(=O)NC2=NCCCCC2)cc1,"inconclusive: 10.3 µM [cytotoxic, partial curve]",
O=C(CN1C(=O)C(=O)c2ccccc21)NCCc1ccccc1,"inconclusive: 0.651 µM [rising, full curve, poor fit]",

SMILES,Potency,"activity change, negative = cytotoxicity"
O=c1cc(CN2CCN(Cc3ccc(F)cc3)C(CCO)C2)[nH]c2ccccc12 (centres undefined),"inconclusive: 18.4 µM [rising, partial curve, poor fit]",
CC(=O)NC(CC(=O)Nc1nc(-c2ccccc2)c(C(C)=O)s1)c1ccccc1 (centres undefined),"inconclusive: 23.1 µM [cytotoxic, single point]",
Cn1cc(CN2CCCC(C(=O)Nc3cccc(-n4cccn4)c3)C2)cn1 (centres undefined),,inconclusive: -12.4%
Cc1ccc(O)c(C(=O)c2cnc3c(c2)c(C)nn3C)c1,"inconclusive: 16.4 µM [cytotoxic, single point]",
Cc1ccc(C(c2nnnn2CC2CCCO2)N2CCN(c3cccc(C)c3C)CC2)cc1 (centres undefined),"inconclusive: 3.66 µM [cytotoxic, partial curve, poor fit]",
NS(=O)(=O)c1cccc(NC(=O)COC(=O)C2(c3cccc(F)c3)CCCC2)c1,,inactive: 11.6%
O=C(Oc1ccccc1F)c1nc(SCc2ccccc2F)ncc1Cl,,inactive: -14.9%
CCC(C)(C)NC(=O)c1ccc2c(c1)N(CC(=O)OC)C(=O)C(C)(C)O2,"inconclusive: 20.6 µM [cytotoxic, partial curve, poor fit]",
Cc1cc(C)cc(OCC(=O)Nc2ccc(F)cc2)c1,,inactive: 8.98%
Cc1ccc2c(c1)nnn2C1CCN(S(=O)(=O)c2ccc3ccccc3c2)CC1,active: 20.6 µM,
CC(C)CNC(=O)C(=O)Nc1ccc2c(c1)N(S(=O)(=O)c1cccs1)CCC2,,inactive: -25.4%
Cc1cc(Cl)ccc1OC(C)C(=O)Nc1cccc(S(=O)(=O)N2CCOCC2)c1 (centres undefined),"inconclusive: 20.6 µM [cytotoxic, partial curve, poor fit]",
CC1CCN(C(=O)c2ccc(CSc3ccc(Cl)cc3)cc2)CC1,active: 18.4 µM,
COc1cccc(N2CCN(CC(=O)Nc3nc(C)c(C(=O)N(C)C)s3)CC2)c1,"inconclusive: 29.1 µM [rising, partial curve, poor fit]",
CCOP(=O)(C1=C(O)C(=O)C(C(C)(C)C)=CC1=O)c1ccccc1 (centres undefined),"inconclusive: 29.1 µM [cytotoxic, single point]",
C/C(CC1CC(C)(C)OC1=O)=N/Nc1nc(-c2ccccc2)cs1 (centres undefined),"inconclusive: 16.4 µM [cytotoxic, partial curve]",
Cc1ccccc1-c1cc2nc(Oc3ccc4c(c3)OCO4)n(C)c(=O)c2s1,"inconclusive: 16.4 µM [cytotoxic, partial curve]",
CC1(C)CCc2nc(SCc3ccccc3)c(C#N)cc2C1,"inconclusive: 29.1 µM [cytotoxic, single point]",
COc1ccc2oc(=N)c(C(=O)Nc3ccccc3Cl)cc2c1,,inactive: 35.7%
S=c1[nH]nc(-c2ccccc2)n1/N=C/c1c[nH]c2ccccc12,"inconclusive: 11.6 µM [rising, single point]",
Cc1ccc(C)c(NC(=O)COC(=O)c2cc(=O)c3ccccc3o2)c1,,inactive: 6.17%
CC(C)Cn1cnc2c(N)nc3ccccc3c21,"inconclusive: 20.6 µM [cytotoxic, partial curve]",
COc1cc(-c2cc(NC(C)=O)c3ncc(-c4ccc(F)cc4)n3c2)cc(OC)c1OC,active: 16.4 µM,
CCc1nc2ccc(C(=O)NCCN3CCNC3=O)cn2c1N(CCC(C)C)CCN(C)C,,inactive: -6.07%
